Some of the results follow.
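Also: competitive profiling in live THP-1 cells: cysteine peptides tagged with an iodoacetamide desthiobiotin (IA-DTB) probe, intensity after compound treatment relative to DMSO-treated cells.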

Sequences of proteins named here, by UniProt entry; tags and fusion partners are left off. A change or cut given only in a name is not applied to a line headed by its entry.
UniProt P55769: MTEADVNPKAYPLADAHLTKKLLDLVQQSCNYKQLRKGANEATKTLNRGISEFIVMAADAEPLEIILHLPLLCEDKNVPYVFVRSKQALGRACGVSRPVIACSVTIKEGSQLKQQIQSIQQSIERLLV
UniProt Q9Y5W7: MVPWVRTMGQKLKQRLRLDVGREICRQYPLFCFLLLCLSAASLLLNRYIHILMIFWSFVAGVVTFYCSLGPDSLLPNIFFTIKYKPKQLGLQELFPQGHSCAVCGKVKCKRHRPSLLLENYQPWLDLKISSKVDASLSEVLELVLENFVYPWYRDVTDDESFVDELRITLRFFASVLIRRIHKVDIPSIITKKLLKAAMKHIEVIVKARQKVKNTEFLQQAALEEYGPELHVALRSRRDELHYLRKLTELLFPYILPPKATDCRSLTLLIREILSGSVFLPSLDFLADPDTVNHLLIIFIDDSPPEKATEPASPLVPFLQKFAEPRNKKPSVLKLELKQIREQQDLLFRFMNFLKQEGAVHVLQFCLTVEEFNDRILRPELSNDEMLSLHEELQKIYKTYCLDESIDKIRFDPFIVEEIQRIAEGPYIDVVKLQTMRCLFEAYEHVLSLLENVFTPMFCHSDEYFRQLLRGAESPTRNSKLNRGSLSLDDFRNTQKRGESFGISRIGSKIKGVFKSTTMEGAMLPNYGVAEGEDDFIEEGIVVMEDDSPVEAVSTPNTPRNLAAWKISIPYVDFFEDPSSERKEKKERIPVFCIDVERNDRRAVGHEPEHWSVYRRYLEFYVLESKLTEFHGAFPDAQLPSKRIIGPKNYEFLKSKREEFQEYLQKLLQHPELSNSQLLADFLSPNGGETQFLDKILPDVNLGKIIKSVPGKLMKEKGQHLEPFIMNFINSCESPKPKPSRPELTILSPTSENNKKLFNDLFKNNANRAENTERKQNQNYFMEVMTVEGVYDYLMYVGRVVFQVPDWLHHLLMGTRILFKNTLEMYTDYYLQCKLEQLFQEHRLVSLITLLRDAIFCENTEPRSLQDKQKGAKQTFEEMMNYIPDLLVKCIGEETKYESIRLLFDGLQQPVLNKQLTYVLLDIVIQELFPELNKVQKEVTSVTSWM
UniProt Q5M775: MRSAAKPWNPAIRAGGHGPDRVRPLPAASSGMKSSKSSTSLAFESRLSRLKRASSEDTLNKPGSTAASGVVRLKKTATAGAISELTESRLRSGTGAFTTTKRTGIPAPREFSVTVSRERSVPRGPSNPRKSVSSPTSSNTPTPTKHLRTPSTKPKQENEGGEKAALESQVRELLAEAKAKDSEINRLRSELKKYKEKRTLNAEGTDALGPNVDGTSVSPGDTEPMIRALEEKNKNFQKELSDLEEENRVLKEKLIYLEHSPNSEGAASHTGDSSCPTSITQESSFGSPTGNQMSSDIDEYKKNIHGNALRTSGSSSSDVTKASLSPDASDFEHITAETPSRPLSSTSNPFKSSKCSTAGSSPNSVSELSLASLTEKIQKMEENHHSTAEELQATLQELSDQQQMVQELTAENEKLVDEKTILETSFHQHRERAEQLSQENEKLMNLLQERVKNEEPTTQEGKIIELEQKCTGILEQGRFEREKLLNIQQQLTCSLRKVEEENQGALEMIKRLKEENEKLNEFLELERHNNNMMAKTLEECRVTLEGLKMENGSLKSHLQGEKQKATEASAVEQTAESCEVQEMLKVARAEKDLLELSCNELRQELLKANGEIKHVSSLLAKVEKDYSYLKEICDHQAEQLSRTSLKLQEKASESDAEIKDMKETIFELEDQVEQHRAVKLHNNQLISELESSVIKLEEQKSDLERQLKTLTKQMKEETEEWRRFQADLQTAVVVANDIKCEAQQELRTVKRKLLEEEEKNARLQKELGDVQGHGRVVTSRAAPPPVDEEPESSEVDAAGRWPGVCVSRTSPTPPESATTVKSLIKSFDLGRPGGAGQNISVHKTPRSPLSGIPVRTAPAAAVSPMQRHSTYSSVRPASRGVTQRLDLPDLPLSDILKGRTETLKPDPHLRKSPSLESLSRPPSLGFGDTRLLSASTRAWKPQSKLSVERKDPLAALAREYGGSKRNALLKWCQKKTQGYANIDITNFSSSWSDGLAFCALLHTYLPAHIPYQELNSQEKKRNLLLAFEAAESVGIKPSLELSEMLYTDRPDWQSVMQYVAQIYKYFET
UniProt Q9Y5X3: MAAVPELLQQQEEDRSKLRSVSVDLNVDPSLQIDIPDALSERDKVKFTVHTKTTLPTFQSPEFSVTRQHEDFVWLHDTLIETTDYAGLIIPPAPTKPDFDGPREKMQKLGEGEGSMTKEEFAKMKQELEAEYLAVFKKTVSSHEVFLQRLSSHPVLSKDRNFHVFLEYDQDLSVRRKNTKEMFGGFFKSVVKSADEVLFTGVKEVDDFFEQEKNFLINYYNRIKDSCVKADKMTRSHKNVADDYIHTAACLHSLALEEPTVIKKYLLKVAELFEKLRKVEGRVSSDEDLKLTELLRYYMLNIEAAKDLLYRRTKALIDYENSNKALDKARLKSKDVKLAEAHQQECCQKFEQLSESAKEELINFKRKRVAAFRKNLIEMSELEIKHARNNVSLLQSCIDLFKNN
UniProt Q9Y5M8: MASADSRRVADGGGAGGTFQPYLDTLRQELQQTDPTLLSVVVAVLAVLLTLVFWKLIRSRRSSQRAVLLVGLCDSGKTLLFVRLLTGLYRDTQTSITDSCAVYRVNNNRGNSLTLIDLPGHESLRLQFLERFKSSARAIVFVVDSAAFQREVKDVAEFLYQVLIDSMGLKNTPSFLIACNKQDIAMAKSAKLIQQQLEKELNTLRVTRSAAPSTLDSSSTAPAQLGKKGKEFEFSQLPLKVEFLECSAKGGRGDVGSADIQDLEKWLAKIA
UniProt Q9NUQ6: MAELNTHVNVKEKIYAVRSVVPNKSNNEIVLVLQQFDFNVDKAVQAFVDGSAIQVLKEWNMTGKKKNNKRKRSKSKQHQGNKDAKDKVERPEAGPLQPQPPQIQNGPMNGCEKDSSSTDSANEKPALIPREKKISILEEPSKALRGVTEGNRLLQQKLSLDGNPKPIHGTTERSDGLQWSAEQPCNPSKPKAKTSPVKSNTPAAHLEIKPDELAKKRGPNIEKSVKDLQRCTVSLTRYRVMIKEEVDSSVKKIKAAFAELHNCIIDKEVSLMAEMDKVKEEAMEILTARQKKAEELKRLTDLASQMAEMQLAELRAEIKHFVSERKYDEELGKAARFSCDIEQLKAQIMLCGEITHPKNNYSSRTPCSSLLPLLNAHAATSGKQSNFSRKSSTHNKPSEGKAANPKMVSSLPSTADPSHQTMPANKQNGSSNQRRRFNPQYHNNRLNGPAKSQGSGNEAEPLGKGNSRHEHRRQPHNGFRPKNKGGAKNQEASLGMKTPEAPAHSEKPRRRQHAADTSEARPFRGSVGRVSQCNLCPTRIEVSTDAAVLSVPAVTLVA
UniProt P10124: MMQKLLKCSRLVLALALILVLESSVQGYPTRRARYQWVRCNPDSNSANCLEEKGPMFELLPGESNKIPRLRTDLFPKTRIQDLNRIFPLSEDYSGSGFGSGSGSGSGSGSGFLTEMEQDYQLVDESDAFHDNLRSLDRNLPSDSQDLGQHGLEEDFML
UniProt P49458: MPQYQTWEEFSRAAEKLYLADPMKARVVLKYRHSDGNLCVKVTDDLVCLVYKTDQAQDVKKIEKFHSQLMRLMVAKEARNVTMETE
UniProt O43278: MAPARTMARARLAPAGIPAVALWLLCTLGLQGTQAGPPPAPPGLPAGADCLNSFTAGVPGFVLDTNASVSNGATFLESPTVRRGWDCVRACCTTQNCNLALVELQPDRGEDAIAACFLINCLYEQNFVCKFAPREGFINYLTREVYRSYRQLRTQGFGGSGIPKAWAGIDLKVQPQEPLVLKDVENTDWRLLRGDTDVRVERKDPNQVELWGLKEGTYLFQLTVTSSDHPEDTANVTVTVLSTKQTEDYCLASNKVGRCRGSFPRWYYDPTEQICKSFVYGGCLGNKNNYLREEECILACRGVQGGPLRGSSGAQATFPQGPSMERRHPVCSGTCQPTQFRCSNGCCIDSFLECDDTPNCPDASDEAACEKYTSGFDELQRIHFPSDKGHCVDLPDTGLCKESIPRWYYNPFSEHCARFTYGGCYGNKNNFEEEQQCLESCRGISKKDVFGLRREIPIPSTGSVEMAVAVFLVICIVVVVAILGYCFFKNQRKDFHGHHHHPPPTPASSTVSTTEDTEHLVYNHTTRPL
UniProt P09132: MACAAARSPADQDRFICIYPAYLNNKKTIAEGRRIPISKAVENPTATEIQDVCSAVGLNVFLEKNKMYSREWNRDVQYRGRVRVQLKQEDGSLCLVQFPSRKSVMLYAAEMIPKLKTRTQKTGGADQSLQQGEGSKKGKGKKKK
UniProt P08047, whole entry, looked up: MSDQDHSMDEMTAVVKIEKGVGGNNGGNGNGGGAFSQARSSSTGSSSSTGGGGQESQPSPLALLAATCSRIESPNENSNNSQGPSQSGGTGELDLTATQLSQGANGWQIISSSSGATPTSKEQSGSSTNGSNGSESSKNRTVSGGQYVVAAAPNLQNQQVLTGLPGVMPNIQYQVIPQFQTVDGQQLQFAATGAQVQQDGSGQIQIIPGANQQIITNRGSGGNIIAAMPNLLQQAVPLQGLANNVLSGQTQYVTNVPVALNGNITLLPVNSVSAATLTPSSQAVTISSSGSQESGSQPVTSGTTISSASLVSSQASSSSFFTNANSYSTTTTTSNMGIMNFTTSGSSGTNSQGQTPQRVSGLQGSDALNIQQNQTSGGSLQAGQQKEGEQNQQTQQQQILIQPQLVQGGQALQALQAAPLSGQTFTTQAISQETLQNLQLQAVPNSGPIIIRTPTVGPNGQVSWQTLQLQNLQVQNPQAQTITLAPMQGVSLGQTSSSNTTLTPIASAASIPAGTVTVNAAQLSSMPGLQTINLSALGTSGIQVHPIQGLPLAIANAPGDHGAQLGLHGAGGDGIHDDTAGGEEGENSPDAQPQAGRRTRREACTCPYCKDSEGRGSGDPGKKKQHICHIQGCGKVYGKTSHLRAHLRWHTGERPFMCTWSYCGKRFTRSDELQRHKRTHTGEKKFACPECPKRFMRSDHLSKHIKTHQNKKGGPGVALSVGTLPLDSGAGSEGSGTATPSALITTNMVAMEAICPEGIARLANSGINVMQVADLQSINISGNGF
UniProt Q5T280: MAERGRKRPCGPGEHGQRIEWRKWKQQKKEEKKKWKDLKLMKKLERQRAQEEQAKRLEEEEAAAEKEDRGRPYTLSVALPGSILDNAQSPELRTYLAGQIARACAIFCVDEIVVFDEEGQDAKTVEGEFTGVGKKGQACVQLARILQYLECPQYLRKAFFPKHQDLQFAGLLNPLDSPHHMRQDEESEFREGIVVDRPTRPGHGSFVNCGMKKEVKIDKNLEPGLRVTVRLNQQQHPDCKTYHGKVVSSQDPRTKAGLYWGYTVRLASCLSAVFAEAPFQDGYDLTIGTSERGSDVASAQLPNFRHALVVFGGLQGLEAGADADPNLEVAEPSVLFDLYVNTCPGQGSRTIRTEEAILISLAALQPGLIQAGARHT
UniProt Q9HB58: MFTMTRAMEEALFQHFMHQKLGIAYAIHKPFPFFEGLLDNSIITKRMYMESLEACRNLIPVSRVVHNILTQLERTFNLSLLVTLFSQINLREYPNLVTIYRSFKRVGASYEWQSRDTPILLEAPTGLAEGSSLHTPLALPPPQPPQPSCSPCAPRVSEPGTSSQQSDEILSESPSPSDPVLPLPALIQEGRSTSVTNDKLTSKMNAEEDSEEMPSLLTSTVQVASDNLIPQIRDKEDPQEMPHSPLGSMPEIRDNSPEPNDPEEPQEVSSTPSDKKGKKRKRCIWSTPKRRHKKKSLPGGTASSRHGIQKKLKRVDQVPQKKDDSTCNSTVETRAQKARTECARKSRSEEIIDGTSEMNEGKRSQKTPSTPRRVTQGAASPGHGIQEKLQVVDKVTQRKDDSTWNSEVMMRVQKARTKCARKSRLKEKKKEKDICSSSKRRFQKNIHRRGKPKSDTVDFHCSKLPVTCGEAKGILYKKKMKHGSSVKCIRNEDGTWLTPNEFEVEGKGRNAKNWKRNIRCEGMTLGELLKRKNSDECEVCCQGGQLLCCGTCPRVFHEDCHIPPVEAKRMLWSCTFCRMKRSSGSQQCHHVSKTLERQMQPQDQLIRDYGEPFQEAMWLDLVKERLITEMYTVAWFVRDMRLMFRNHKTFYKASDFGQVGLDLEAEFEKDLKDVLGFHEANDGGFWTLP
UniProt Q86XE0: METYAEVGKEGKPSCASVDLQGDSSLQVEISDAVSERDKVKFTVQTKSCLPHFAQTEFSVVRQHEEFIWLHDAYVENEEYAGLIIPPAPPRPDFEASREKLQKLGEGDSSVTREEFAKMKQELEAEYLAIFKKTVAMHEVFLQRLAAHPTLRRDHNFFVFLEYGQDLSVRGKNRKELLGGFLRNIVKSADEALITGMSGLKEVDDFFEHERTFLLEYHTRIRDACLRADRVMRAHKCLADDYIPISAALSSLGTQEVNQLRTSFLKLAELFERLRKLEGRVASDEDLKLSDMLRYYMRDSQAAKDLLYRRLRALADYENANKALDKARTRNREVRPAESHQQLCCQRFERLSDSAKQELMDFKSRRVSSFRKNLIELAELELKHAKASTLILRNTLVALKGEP

Compound in this assay: Cc1cc(ccc1-c1ccccc1)C(=O)N1CCCN(CC1)C(=O)CCl [compound 10]
Description: probe-labelled cysteine peptide fold change vs DMSO (competition) (log2 fold change); higher = less target engagement (more negative = stronger competition). The conditions noted are these: 50 µM; THP-1; incubation time: 4 h.
For “SPATS2_Q86XZ4_280_QAFAELESCLMDR (UniProt Q86XZ4)”, the “probe-labelled cysteine peptide fold change” value is 0.363.

Regarding “SNU13_P55769_102_ACGVSRPVIACSVTIK (UniProt P55769)”, the “probe-labelled cysteine peptide fold change” value came to 0.155.

For the target “SNX14_Q9Y5W7_593_ERIPVFCIDVER (UniProt Q9Y5W7)”, the “probe-labelled cysteine peptide fold change” value came to 0.205.

Regarding “SPECC1_Q5M775_598_DLLELSCNELRQELLK (UniProt Q5M775)”, the “probe-labelled cysteine peptide fold change” value is -0.713.

Turning to “SNX7_Q9UNH6_325_VECANNALK (UniProt Q9UNH6)”, the “probe-labelled cysteine peptide fold change” value is -0.28.

Regarding “SNX5_Q9Y5X3_346+347_LAEAHQQECCQK (UniProt Q9Y5X3)”, the “probe-labelled cysteine peptide fold change” value is -0.99.

For “SP100_P23497_266+270_EMPCPLPCDEESPEAELHNHGIQINSCSVR (UniProt P23497)”, the “probe-labelled cysteine peptide fold change” value is -1.25.

With “SPTLC1_O15269_419_LLQEIVDQCMNR (UniProt O15269)”, the “probe-labelled cysteine peptide fold change” value stood at 0.171.

Regarding “SRI_P30626_57+75_CLTQSGIAGGYKPFNLETCR (UniProt P30626)”, the “probe-labelled cysteine peptide fold change” value was -0.139.

For “SPDL1_Q96EA4_490_EETQSCPNSLEDNNLQLEK (UniProt Q96EA4)”, the “probe-labelled cysteine peptide fold change” value is -0.285.

Take “SNRPF_P62306_66_CNNVLYIR (UniProt P62306)”: the “probe-labelled cysteine peptide fold change” value turned out to be 0.0292.

For “SPR_P35270_159_TVVNISSLCALQPFK (UniProt P35270)”, the “probe-labelled cysteine peptide fold change” value is -0.165.

As to “SRPRB_Q9Y5M8_179_NTPSFLIACNK (UniProt Q9Y5M8)”, the “probe-labelled cysteine peptide fold change” value was 0.111.

Take “SPAG9_O60271_689_LWCAVGVNLSGGK (UniProt O60271)”: the “probe-labelled cysteine peptide fold change” value is -0.0339.

With “SPATS2L_Q9NUQ6_367_TPCSSLLPLLNAHAATSGK (UniProt Q9NUQ6)”, the “probe-labelled cysteine peptide fold change” value was -0.416.

Take “SREBF1_P36956_932_ALLGCAK (UniProt P36956)”: the “probe-labelled cysteine peptide fold change” value was -0.0562.

For the target “SRGN_P10124_40+49_CNPDSNSANCLEEK (UniProt P10124)”, the “probe-labelled cysteine peptide fold change” value was -0.569.

For the target “SORL1_Q92673_752_LEGELVPCPLAEENEFILYAVR (UniProt Q92673)”, the “probe-labelled cysteine peptide fold change” value amounted to 0.148.

Consider “SRM_P19623_89_DEFSYQEMIANLPLCSHPNPR (UniProt P19623)”, for which the “probe-labelled cysteine peptide fold change” value is 0.233.

For the target SNX9_Q9Y5X1_399_CEAVGK (UniProt Q9Y5X1), the “probe-labelled cysteine peptide fold change” value was -0.103.

Regarding “SRP9_P49458_48_VTDDLVCLVYKTDQAQDVK (UniProt P49458)”, the “probe-labelled cysteine peptide fold change” value is -0.628.

Turning to “SPINT1_O43278_424_FTYGGCYGNK (UniProt O43278)”, the “probe-labelled cysteine peptide fold change” value was -0.709.

On to “SPTAN1_Q13813_956_EQAQSCR (UniProt Q13813)”, for which the “probe-labelled cysteine peptide fold change” value is -0.0854.

Consider “SRP19_P09132_17_FICIYPAYLNNK (UniProt P09132)”, for which the “probe-labelled cysteine peptide fold change” value came to 0.25.

As to “SP100_P23497_309_VECQAQAR (UniProt P23497)”, the “probe-labelled cysteine peptide fold change” value was -0.242.

Take “SRGAP2_O75044_588_DIFHDLMACVTMDNLQER (UniProt O75044)”: the “probe-labelled cysteine peptide fold change” value turned out to be 0.306.

With “SPECC1_Q5M775_740_CEAQQELR (UniProt Q5M775)”, the “probe-labelled cysteine peptide fold change” value turned out to be 0.182.

On to “SRP19_P09132_17_FICIYPAYLNNKK (UniProt P09132)”, for which the “probe-labelled cysteine peptide fold change” value was -0.0559.

As for “SP1_P08047_691_FACPECPK (UniProt P08047)”, the “probe-labelled cysteine peptide fold change” value was found to be 0.148.

For “SPOUT1_Q5T280_139_KGQACVQLAR (UniProt Q5T280)”, the “probe-labelled cysteine peptide fold change” value was -0.132.

As for “SP3_Q02447_683_KFVCPECSK (UniProt Q02447)”, the “probe-labelled cysteine peptide fold change” value came out at 0.33.

In the case of “SPEN_Q96T58_877_NRLELMPCVVLTR (UniProt Q96T58)”, the “probe-labelled cysteine peptide fold change” value is -0.0526.

As to “SNW1_Q13573_250_IPPCISNWK (UniProt Q13573)”, the “probe-labelled cysteine peptide fold change” value is -0.565.

On to “SP110_Q9HB58_468_LPVTCGEAK (UniProt Q9HB58)”, for which the “probe-labelled cysteine peptide fold change” value was found to be 0.00207.

Turning to “SPPL2A_Q8TCT8_95_AVVVPWGSCHFLEK (UniProt Q8TCT8)”, the “probe-labelled cysteine peptide fold change” value is -0.0495.

As for “SPATS2L_Q9NUQ6_263_AAFAELHNCIIDK (UniProt Q9NUQ6)”, the “probe-labelled cysteine peptide fold change” value is 0.125.

Regarding “SNX32_Q86XE0_237_CLADDYIPISAALSSLGTQEVNQLR (UniProt Q86XE0)”, the “probe-labelled cysteine peptide fold change” value is -0.0413.

With “SPATA5L1_Q9BVQ7_685_TMPIGPDVSLENLAAETCFFSGADLR (UniProt Q9BVQ7)”, the “probe-labelled cysteine peptide fold change” value is 0.107.

“SORBS3_O60504_482_GEHICLIR (UniProt O60504)”: the “probe-labelled cysteine peptide fold change” value was -0.222.

These data come from the supplement of paper PMC12067093, “Discovery and optimisation of a covalent ligand for TRIM25 and its application to targeted protein ubiquitination” (Chemical Science, 2025).
